Data taken from PubChem BioAssay AID1053133, deposited by Broad Institute (2014).

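Vaccinia-infected cells with a two-color viral stage reporter; Venus fluorescence read on a plate reader; the cell line is not named here; timing not stated here.
The test concentration is not given here.
Percent change in Venus reporter signal; lower (more negative) values mean stronger inhibition of that viral stage.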

Values are in %.
How 0% and 100% were set is not given here.
Common to all entries: measured here: Venus reporter, other viral stage.
Part of the compounds only, not a random draw; the main read-out is not listed here.

| Compound | activity change (Venus) (%) |
|---|---|
| `C[C@H]1CN([C@@H](C)CO)S(=O)(=O)c2ccc(C3=CCCCC3)cc2O[C@@H]1CN(C)C(=O)Nc1ccc2c(c1)OCO2` | -48.01 |
| `CC(C)NC(=O)N1CCCCN2[C@@H](CO)[C@@H](c3ccc(C#Cc4ccccc4F)cc3)[C@@H]2C1` | -79.5 |
| `CN1CCCCN2[C@@H](CO)[C@@H](c3ccc(/C=C/c4ccccc4)cc3)[C@@H]2C1` | -68.93 |
| `C[C@H](CO)N1C[C@H](C)[C@H](CN(C)Cc2cncnc2)Oc2cc(/C=C/c3ccccc3)ccc2S1(=O)=O` | -29.19 |
| `CC(C)NC(=O)N(C)C[C@@H]1Oc2cc(C3=CCCCC3)ccc2S(=O)(=O)N([C@@H](C)CO)C[C@@H]1C` | -24.15 |
| `C[C@H](CO)N1C[C@H](C)[C@@H](CN(C)C(=O)Nc2ccccc2)OCc2cn(nn2)CCCC1=O` | -27.17 |
| `O=C(C[C@@H]1CC[C@H]2[C@@H](COC[C@@H](O)CN2CC2CCCCC2)O1)NCc1ccc(Cl)cc1` | -56.85 |
| `C[C@H](CO)N1C[C@H](C)[C@H](CN(C)CC2CCCCC2)Oc2ccc(NC(=O)Nc3ccc(C(F)(F)F)cc3)cc2C1=O` | -56.67 |
| `C[C@H]1CCCCO[C@H](CN(C)CC2CCCCC2)[C@@H](C)CN([C@@H](C)CO)C(=O)c2cc(NC(=O)c3ccccc3)ccc2O1` | -65.6 |
| `CO[C@H]1CN(C)C(=O)c2cc(NC(=O)Nc3ccc(C(F)(F)F)cc3)ccc2OC[C@H](C)NC[C@H]1C` | -57.2 |
| `COc1ccc([Si](C)(C)[C@H]2[C@H](CCO)O[C@@]3(C(=O)N(Cc4ccccc4)c4ccc(N5CCCCC5=O)cc43)[C@@H]2C)cc1` | -71.38 |
| `CO[C@@H](CN(C)S(=O)(=O)c1cccc(Cl)c1)[C@@H](C)CN([C@@H](C)CO)S(=O)(=O)c1ccc(Cl)cc1` | -40.93 |
| `C[C@@H]1CN([C@H](C)CO)S(=O)(=O)c2ccc(C#Cc3ccc(F)cc3)cc2O[C@@H]1CN(C)CC1CC1` | -32.9 |
| `C[C@H](CO)N1C[C@H](C)[C@H](CN(C)C(=O)NC2CCCCC2)Oc2c(NC(=O)Nc3ccc4c(c3)OCO4)cccc2C1=O` | -30.08 |
| `C[C@@H]1CN([C@H](C)CO)C(=O)c2cc(NC(=O)C3CCCCC3)ccc2O[C@@H](C)CCCCO[C@@H]1CN(C)Cc1ccccc1` | -47.79 |
| `O=C(C[C@H]1CC[C@@H]2[C@H](COC[C@H](O)CN2C(=O)c2cc(Cl)cc(Cl)c2)O1)N1CCc2ccccc2C1` | -12.88 |
| `CNC[C@@H]1Oc2ccc(NC(=O)C3CC3)cc2CC(=O)N([C@H](C)CO)C[C@@H]1C` | -41.58 |
| `COc1ccc(CN(C)C[C@H]2Oc3c(NC(=O)c4ccc(-c5nccs5)cc4)cccc3C(=O)N([C@@H](C)CO)C[C@H]2C)cc1` | -27.67 |
| `O=C(c1cccc(F)c1)N1CCCCN2[C@H](C1)[C@H](c1ccc(/C=C/c3ccccc3)cc1)[C@@H]2CO` | -41.93 |
| `Cc1ccc(S(=O)(=O)Nc2ccc3c(c2)C(=O)N([C@@H](C)CO)C[C@@H](C)[C@@H](CN(C)C(=O)C2CCCCC2)OCCCC[C@H](C)O3)cc1` | -36.33 |
| `O=C(Nc1cccc(F)c1)N1CC(=O)N2[C@H](C1)[C@@H](c1ccc(-c3cccc(F)c3)cc1)[C@@H]2CO` | -59.19 |
| `C[C@H](CO)N1C[C@H](C)[C@@H](CN(C)Cc2ccccc2)Oc2ccc(NC(=O)Nc3ccc(C(F)(F)F)cc3)cc2C1=O` | -40.13 |
| `C[C@@H]1CCCCO[C@@H](CN(C)S(=O)(=O)c2ccccc2)[C@H](C)CN([C@H](C)CO)C(=O)c2cc(NS(=O)(=O)c3ccccc3)ccc2O1` | -59.23 |
| `CCCN(C)C[C@H]1OCCCC[C@@H](C)Oc2ccc(NS(=O)(=O)c3ccc(C)cc3)cc2C(=O)N([C@@H](C)CO)C[C@H]1C` | -34.17 |
| `C[C@@H]1CN([C@H](C)CO)C(=O)c2ccccc2-c2ccccc2CO[C@@H]1CN(C)Cc1ccc(C(F)(F)F)cc1` | -28.83 |
| `CCCC#Cc1ccc2c(c1)O[C@@H](CN(C)C(=O)Nc1ccc(OC)cc1)[C@@H](C)CN([C@H](C)CO)S2(=O)=O` | -31.09 |
| `C[C@H](CO)N1C[C@H](C)[C@@H](CN(C)S(=O)(=O)c2cccc(F)c2)Oc2ncc(C#CC3CCCC3)cc2C1=O` | -47.41 |
| `C[C@@H]1CCCCO[C@H](CN(C)C(=O)Cc2ccccc2)[C@@H](C)CN([C@@H](C)CO)C(=O)c2cc(NC(=O)c3ccccc3)ccc2O1` | -48.28 |
| `CN1c2ccc(-c3ccccc3)cc2[C@@H]2[C@@H](CCN2C(=O)c2ccccc2F)[C@@H]1CO` | -52.03 |
| `CC(C)CC#Cc1ccc2c(c1)O[C@H](CN(C)Cc1ccc(C(=O)O)cc1)[C@@H](C)CN([C@H](C)CO)S2(=O)=O` | -47.65 |
| `COc1cccc(S(=O)(=O)Nc2ccc3c(c2)C(=O)N(C)C[C@@H](OC)[C@@H](C)CN(Cc2ccccc2F)[C@@H](C)CO3)c1` | -39.25 |
| `C[C@H](CO)N1C[C@H](C)[C@@H](CN(C)S(=O)(=O)c2cccc(F)c2)OCc2ccccc2-c2c(n(C)c3ccccc23)C1=O` | -57.94 |
| `C[C@@H]1CN([C@@H](C)CO)C(=O)c2cccc(NC(=O)Nc3ccc(C(F)(F)F)cc3)c2O[C@@H]1CN(C)S(=O)(=O)c1ccc(F)cc1` | -68.63 |
| `CC(C)NC(=O)N(C)C[C@H]1Oc2cc(C#Cc3ccc(F)cc3)ccc2S(=O)(=O)N([C@@H](C)CO)C[C@H]1C` | -50.45 |
| `Cc1noc(C)c1S(=O)(=O)Nc1ccc2c(c1)C(=O)N([C@@H](C)CO)C[C@H](C)[C@H](CN(C)Cc1ccc(Cl)c(Cl)c1)OCCCC[C@@H](C)O2` | -52.42 |
| `C[C@@H]1CN([C@H](C)CO)C(=O)c2cccc(NC(=O)NC3CCCCC3)c2O[C@H]1CN(C)Cc1ccc(Oc2ccccc2)cc1` | -55.04 |
| `Cc1ccc(S(=O)(=O)Nc2ccc3c(c2)CC(=O)N([C@@H](C)CO)C[C@H](C)[C@@H](CN(C)Cc2ccc(Oc4ccccc4)cc2)O3)cc1` | -65.51 |
| `C[C@H](CO)N1C[C@H](C)[C@H](CN(C)C(=O)Nc2cccc(F)c2)OCc2ccccc2-c2c(n(C)c3ccccc23)C1=O` | -23.75 |
| `C[C@H](CO)N1C[C@H](C)[C@H](CN(C)Cc2ccc3c(c2)OCO3)Oc2ncc(-c3ccc(F)cc3)cc2C1=O` | -30.39 |
| `N#C[C@H]1[C@@H](c2ccc(C#Cc3cccc(F)c3)cc2)[C@H](CO)N1C(=O)C1CC1` | -18.2 |
| `C/C=C/c1ccc2c(c1)O[C@@H](CN(C)C(=O)Nc1cccc(F)c1)[C@@H](C)CN([C@H](C)CO)S2(=O)=O` | -37.88 |

The first 4 entries again:

{"compound": "C[C@H]1CN([C@@H](C)CO)S(=O)(=O)c2ccc(C3=CCCCC3)cc2O[C@@H]1CN(C)C(=O)Nc1ccc2c(c1)OCO2", "activity change (Venus) (%)": "-48.01"}
{"compound": "CC(C)NC(=O)N1CCCCN2[C@@H](CO)[C@@H](c3ccc(C#Cc4ccccc4F)cc3)[C@@H]2C1", "activity change (Venus) (%)": "-79.5"}
{"compound": "CN1CCCCN2[C@@H](CO)[C@@H](c3ccc(/C=C/c4ccccc4)cc3)[C@@H]2C1", "activity change (Venus) (%)": "-68.93"}
{"compound": "C[C@H](CO)N1C[C@H](C)[C@H](CN(C)Cc2cncnc2)Oc2cc(/C=C/c3ccccc3)ccc2S1(=O)=O", "activity change (Venus) (%)": "-29.19"}